In paper PMC10216351:
Results are given in words; binding and its absence hold for the method and conditions named. Binding seen in cells or lysates may run through a third protein. Some binding calls cover weakened binding; strength is not graded here. For part of these data: Tags and fused reporters may be left off the sequences shown. One block for each binder: values may come before it.

What was measured:
[1] = target: T1, LASP1 (LIM and SH3 domain protein 1), endogenous (human (endogenous in A549)) (UniProt Q14847); experiment: co-IP; endogenous proteins of A549 lysate; IP with anti-LASP1 on Dynabeads, 2 h at 4 °C; IP-lysis buffer 25 mM Tris HCl pH 7.4, 150 mM NaCl, 1 mM EDTA, 1% NP-40, 1% glycerol; WB for CERS6
T1 sequence: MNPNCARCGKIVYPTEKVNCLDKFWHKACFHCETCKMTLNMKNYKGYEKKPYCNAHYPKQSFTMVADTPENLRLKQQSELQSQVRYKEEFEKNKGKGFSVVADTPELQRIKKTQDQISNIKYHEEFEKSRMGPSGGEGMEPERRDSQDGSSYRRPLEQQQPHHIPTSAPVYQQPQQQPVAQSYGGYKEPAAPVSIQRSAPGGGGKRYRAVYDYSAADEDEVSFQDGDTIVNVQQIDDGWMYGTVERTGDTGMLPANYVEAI

[2] = target: T2, LASP1-FLAG, full-length (UniProt Q14847); experiment: co-IP; LASP1-FLAG full-length or truncated mutants overexpressed in A549; IP with anti-FLAG on Dynabeads; WB for endogenous CERS6
T2 sequence: T1 sequence

[3] = target: T3, CERS6-HA (UniProt Q6ZMG9); experiment: cross-linking + co-IP; crosslinking immunoprecipitation (CLIP): A549 cells overexpressing CERS6-HA, 1% formaldehyde in RPMI1640 for 5 min at RT, quenched with 125 mM glycine; IP with anti-CERS6 or anti-HA on Dynabeads; WB for LASP1
T3 sequence: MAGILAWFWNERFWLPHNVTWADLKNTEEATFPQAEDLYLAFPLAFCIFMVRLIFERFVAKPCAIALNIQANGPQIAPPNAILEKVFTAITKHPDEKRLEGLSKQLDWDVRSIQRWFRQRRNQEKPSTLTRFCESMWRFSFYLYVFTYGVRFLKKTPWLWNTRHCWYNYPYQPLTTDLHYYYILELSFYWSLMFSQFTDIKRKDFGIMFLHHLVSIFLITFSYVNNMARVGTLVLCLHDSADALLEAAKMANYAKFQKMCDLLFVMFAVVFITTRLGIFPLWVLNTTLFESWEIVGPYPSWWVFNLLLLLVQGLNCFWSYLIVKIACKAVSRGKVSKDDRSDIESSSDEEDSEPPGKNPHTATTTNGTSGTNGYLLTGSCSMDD

binding [1]: binds
binding [2]: binds
B1: CERS6 (ceramide synthase 6), endogenous (protein, UniProt Q6ZMG9 1-384)
chain: T3 sequence

binding [3]: binds
B2: LASP1 (LIM and SH3 domain protein 1), endogenous (protein, UniProt Q14847 1-261)
chain: T1 sequence
